Measurements as given in the supplement of paper PMC10849652.
The list shows a part of the results.

Chains of the proteins cited; added tags and fusions are not shown. Lines headed by an entry give the natural chain unless they say otherwise; changes in a name come on top.
UniProt Q9BRR6: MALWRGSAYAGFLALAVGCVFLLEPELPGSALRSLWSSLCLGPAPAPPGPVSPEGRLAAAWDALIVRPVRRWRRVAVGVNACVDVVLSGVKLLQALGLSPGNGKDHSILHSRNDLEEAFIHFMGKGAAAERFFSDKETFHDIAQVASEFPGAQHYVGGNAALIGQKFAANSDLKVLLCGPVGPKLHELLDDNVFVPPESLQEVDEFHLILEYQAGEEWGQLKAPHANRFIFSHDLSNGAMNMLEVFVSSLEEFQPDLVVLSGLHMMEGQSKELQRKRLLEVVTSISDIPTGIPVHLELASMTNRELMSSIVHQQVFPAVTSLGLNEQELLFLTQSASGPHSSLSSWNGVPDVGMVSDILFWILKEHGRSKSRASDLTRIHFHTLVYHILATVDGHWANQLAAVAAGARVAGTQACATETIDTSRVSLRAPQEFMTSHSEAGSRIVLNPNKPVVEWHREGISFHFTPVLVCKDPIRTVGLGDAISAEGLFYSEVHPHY
UniProt Q01432: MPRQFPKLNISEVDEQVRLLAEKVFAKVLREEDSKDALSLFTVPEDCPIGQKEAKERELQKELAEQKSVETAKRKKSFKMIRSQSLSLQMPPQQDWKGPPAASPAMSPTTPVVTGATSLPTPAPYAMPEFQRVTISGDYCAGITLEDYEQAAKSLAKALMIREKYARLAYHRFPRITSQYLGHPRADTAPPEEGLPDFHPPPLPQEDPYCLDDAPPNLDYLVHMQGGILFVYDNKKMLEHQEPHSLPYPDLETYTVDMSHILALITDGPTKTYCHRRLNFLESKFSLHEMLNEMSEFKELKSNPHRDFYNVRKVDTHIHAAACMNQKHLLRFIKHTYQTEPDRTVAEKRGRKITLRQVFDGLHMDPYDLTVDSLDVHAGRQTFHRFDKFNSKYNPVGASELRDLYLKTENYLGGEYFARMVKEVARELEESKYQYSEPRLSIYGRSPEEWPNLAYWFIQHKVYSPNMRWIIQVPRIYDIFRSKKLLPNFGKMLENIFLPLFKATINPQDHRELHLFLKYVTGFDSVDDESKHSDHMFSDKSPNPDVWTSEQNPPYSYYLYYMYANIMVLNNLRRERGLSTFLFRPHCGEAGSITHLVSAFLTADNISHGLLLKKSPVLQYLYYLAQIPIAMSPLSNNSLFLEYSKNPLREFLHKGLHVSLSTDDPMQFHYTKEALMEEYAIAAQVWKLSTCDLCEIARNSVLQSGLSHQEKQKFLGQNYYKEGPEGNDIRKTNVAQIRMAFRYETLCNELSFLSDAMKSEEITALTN
UniProt Q6RW13: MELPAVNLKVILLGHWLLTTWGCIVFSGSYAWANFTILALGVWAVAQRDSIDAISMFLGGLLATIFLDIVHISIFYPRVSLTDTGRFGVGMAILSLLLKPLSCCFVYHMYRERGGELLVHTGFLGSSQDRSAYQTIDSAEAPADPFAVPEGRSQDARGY
UniProt P52594: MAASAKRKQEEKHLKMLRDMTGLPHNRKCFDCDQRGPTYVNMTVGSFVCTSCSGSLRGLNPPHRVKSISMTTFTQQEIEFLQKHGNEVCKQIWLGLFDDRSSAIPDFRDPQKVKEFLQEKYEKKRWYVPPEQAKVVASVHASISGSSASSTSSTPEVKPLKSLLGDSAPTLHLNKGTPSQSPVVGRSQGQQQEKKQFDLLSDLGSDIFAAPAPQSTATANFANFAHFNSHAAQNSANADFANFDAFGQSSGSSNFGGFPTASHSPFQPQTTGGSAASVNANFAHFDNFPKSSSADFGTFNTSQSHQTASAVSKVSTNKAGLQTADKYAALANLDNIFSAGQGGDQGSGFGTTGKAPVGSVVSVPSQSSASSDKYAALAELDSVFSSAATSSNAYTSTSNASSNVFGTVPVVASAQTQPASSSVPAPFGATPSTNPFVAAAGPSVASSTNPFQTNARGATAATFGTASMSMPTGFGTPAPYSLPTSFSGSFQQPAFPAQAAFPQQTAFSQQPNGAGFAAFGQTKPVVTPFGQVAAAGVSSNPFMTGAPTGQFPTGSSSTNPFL
UniProt P51825: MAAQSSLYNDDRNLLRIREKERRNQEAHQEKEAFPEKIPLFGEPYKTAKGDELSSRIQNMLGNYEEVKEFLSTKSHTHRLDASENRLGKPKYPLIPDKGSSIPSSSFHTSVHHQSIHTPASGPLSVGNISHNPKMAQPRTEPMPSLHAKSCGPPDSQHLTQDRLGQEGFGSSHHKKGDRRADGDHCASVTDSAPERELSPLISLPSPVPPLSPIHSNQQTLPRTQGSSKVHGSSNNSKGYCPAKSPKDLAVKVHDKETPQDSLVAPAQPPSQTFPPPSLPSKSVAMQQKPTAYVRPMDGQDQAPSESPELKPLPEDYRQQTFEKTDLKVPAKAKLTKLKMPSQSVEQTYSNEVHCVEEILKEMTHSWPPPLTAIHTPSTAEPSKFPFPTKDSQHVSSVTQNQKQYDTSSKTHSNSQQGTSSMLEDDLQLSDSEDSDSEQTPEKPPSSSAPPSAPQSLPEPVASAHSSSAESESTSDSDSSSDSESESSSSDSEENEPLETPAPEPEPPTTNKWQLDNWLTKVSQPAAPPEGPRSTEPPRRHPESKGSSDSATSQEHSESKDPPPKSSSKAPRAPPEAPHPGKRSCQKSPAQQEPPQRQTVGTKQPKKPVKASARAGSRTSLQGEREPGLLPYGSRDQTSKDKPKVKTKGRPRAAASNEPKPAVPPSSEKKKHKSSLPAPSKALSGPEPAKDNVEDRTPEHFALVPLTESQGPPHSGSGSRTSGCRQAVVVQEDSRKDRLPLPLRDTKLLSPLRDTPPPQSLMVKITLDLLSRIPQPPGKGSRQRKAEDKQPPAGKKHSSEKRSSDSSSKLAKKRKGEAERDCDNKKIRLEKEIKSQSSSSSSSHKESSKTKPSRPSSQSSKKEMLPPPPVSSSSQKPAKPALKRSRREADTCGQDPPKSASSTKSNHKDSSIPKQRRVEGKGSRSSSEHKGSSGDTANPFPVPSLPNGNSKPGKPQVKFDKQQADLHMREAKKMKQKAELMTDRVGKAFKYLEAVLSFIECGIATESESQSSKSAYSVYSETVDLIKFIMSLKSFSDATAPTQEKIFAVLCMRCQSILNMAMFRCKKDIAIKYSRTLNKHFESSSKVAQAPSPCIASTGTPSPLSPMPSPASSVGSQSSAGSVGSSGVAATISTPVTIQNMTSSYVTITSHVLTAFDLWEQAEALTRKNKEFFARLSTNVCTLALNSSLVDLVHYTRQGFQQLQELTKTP
UniProt Q8N142: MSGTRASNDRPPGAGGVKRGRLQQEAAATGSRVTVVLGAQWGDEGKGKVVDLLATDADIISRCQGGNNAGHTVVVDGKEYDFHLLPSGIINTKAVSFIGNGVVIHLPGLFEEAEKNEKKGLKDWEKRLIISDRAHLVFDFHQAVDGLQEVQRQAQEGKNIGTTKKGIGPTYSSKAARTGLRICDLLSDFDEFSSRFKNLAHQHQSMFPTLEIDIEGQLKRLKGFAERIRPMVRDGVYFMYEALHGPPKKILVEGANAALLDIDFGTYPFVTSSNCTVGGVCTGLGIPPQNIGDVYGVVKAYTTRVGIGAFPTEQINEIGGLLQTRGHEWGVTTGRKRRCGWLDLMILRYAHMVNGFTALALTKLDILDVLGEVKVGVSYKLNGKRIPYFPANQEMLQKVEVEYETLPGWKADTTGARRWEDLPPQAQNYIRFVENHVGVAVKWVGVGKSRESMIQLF
UniProt Q9UHX3: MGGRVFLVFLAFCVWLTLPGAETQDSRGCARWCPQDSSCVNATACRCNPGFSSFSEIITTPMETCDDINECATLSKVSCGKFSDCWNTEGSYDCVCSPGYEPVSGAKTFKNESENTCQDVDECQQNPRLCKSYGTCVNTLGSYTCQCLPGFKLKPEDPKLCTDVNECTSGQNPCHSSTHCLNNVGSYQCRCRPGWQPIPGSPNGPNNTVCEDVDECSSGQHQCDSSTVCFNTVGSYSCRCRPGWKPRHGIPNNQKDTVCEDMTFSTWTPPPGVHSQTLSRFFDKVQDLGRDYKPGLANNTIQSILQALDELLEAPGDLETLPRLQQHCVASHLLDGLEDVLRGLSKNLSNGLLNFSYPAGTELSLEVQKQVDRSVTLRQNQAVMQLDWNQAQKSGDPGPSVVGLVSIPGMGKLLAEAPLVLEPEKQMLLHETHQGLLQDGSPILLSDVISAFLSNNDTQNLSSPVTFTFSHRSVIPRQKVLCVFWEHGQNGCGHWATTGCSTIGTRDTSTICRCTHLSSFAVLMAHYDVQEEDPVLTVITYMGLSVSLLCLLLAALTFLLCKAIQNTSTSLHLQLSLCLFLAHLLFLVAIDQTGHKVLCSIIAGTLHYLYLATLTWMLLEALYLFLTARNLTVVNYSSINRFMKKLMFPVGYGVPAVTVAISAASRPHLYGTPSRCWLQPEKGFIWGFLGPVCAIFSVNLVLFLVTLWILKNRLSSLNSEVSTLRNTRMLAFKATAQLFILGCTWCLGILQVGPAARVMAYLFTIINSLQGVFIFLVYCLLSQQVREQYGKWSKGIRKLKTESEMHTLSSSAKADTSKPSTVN
UniProt Q9Y4W6: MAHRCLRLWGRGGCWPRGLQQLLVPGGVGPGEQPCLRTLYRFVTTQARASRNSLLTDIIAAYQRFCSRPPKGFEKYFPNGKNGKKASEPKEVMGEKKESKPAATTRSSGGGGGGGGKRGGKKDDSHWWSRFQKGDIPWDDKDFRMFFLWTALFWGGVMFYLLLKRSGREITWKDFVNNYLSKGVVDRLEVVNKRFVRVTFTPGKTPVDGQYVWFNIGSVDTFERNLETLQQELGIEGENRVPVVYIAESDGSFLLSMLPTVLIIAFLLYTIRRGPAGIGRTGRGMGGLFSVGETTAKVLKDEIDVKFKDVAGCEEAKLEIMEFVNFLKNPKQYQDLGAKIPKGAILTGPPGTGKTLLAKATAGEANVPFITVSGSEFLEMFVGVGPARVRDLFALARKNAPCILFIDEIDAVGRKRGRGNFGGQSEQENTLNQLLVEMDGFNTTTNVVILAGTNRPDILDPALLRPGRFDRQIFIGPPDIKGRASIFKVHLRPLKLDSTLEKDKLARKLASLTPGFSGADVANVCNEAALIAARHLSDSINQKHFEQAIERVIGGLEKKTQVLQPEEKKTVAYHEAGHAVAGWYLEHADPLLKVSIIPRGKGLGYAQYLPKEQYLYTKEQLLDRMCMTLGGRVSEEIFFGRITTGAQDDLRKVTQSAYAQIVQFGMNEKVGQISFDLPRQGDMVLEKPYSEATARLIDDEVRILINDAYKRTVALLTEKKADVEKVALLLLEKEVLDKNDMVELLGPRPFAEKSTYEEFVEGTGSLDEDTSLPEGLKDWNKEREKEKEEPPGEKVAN
UniProt Q9BT22: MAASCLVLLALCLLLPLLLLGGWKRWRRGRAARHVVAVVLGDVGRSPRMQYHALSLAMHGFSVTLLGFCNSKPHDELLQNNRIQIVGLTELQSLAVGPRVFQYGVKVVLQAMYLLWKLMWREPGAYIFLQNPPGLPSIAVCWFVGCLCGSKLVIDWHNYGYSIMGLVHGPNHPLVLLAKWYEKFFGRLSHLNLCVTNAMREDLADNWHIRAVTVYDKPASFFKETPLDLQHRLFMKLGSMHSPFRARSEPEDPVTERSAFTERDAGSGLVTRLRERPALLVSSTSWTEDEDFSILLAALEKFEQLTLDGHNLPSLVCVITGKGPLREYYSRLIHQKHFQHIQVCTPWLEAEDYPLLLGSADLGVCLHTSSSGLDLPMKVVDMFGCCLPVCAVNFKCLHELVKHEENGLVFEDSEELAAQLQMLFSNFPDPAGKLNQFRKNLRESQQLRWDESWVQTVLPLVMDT
UniProt O15120: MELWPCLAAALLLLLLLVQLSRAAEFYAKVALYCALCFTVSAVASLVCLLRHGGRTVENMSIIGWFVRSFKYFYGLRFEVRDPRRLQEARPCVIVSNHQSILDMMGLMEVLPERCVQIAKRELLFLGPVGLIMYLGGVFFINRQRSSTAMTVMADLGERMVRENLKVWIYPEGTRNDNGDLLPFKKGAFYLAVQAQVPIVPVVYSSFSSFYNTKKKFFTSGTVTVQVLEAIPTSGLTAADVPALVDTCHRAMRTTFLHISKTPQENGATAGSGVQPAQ
UniProt P30038: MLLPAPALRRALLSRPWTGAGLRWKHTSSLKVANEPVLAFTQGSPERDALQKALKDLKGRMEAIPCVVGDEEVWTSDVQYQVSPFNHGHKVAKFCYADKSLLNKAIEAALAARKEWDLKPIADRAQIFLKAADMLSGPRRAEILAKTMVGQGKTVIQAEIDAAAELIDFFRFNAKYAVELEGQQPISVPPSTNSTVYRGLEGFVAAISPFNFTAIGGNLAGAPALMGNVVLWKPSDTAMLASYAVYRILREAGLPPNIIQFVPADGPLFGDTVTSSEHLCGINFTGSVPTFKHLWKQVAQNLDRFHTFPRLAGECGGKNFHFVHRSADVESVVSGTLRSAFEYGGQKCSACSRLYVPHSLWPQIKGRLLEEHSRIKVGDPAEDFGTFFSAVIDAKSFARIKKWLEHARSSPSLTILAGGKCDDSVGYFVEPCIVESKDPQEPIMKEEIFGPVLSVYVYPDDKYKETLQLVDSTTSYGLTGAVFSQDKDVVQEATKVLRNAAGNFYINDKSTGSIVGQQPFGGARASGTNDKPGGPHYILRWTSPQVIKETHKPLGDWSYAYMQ

Legend:
Assay in all cases: log2 fold change, soluble protein after heating vs DMSO (PISA); higher = thermal stabilisation; K562 cells, 10 uM, 30 min; active = over 0.2 and 3.5 SD of the protein, either way, in both replicates (recomputed)
[1] = compound: CC[C@@H]1C(=O)N(C)c2cnc(Nc3ccc(C(=O)NC4CCN(C)CC4)cc3OC)nc2N1C1CCCC1
How it was run: (§1)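 Soluble protein was defined as the supernatant after 21,000xg for 90 min. It came from K562 cells at 2×10^6 cells/mL given 10 μM compound for 30 min, heated in aliquots for 3 min across 48°C-58°C, pooled, and extracted in PBS with 0.5% NP-40 at 4°C, and was quantified by TMTpro 16plex LC-MS/MS with equalised channel sums. Thermal stability against control samples, from duplicates, is reported as log2 fold change.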

volasertib = compound: CC[C@@H]1C(=O)N(C)c2cnc(Nc3ccc(C(=O)N[C@H]4CC[C@H](N5CCN(CC6CC6)CC5)CC4)cc3OC)nc2N1C(C)C [volasertib]
How it was run: as §1

[2] = compound: CC[C@H](C)N1C=C(C2=C(C=C(C=C21)C3=CN=C(C=C3)N4CCNCC4)C(=O)NCC5=C(C=C(NC5=O)C)C)C
How it was run: as §1

epoxomicin = compound: CC[C@H](C)[C@@H](C(=O)N[C@@H]([C@@H](C)O)C(=O)N[C@@H](CC(C)C)C(=O)[C@]1(CO1)C)NC(=O)[C@H]([C@@H](C)CC)N(C)C(=O)C [epoxomicin]
How it was run: as §1

[3] = compound: CCn1c(C(=O)N(C2CC2)C2CC2)cc2c3c(ncn3C)c(Nc3cc(C)n(C)n3)nc21
How it was run: as §1

[4] = compound: CCn1cc(-c2ccnc3[nH]c(-c4cccc(CN(C)C)c4)cc23)c(-c2ccc(NC(=O)N(C)C)cc2)n1
How it was run: as §1

[5] = compound: CN(C)CC(=O)Nc1ccc2[nH]c(=O)c3ccccc3c2c1
How it was run: as §1

rosiglitazone = compound: CN(CCOC1=CC=C(C=C1)C[C@H]2C(=O)NC(=O)S2)C3=CC=CC=N3 (racemic) [rosiglitazone]
How it was run: as §1

[6] = compound: CN1C2=C(C3=C1C(=O)N(N=C3)CC4=CC(=CC=C4)N)SC(=C2)S(=O)C
How it was run: as §1

[7] = compound: CN1CCC(CNc2ccc3ncc(-c4cccc(OC(F)(F)F)c4)n3n2)CC1
How it was run: as §1

Measured: log2 fold change

ALDOC (UniProt P09972)
inactive: [1] -0.017 | volasertib 0.063 | [2] -0.058 | epoxomicin 0.013 | [3] 0.001 | [4] -0.007 | [5] 0 | rosiglitazone -0.005 | [6] -0.068 | [7] -0.056

ALKBH6 isoform 2 (UniProt Q3KRA9)
inactive: [1] 0.019 | volasertib -0.082 | [2] 0.056 | epoxomicin 0.013 | [3] 0.009 | [4] -0.106 | [5] -0.061 | rosiglitazone 0.028 | [6] -0.081 | [7] -0.065

ADPGK (UniProt Q9BRR6)
inactive: [1] 0.075 | volasertib -0.056 | [2] -0.028 | epoxomicin -0.103 | [3] 0.019 | [4] 0.019 | [5] -0.02 | rosiglitazone 0 | [6] -0.006 | [7] 0.045

AKR7A2 (UniProt O43488)
inactive: [1] -0.03 | volasertib -0.009 | [2] 0.054 | epoxomicin 0.081 | [3] 0.015 | [4] 0.027 | [5] 0.032 | rosiglitazone 0.023 | [6] -0.036 | [7] -0.009

ANAPC1 (UniProt Q9H1A4)
inactive: [1] -0.031 | volasertib -0.114 | [2] 0.025 | epoxomicin 0.021 | [3] -0.026 | [4] 0.058 | [5] -0.013 | rosiglitazone -0.017 | [6] 0.016 | [7] 0.023

AGO2 (UniProt Q9UKV8)
inactive: [1] 0.128 | volasertib 0.052 | [2] -0.018 | epoxomicin -0.081 | [3] -0.042 | [4] 0.08 | [5] -0.026 | rosiglitazone -0.042 | [6] 0.002 | [7] 0.124

ALYREF (UniProt Q86V81)
inactive: [1] 0.269 | volasertib 0.441 | [2] -0.123 | epoxomicin -0.21 | [3] -0.042 | [4] 0.25 | [5] -0.089 | rosiglitazone -0.194 | [6] 0.257 | [7] 0.459

AGL (UniProt P35573)
inactive: [1] 0.206 | volasertib 0.288 | [2] 0.035 | epoxomicin -0.172 | [3] -0.007 | [4] 0.039 | [5] -0.058 | rosiglitazone 0.014 | [6] 0.172 | [7] 0.004

AMPD3 isoform 4 (UniProt Q01432)
inactive: [1] 0.01 | volasertib 0.04 | [2] 0.01 | epoxomicin 0.024 | [3] 0.01 | [4] -0.016 | [5] -0.006 | rosiglitazone 0.042 | [6] -0.03 | [7] -0.076

ALDOA isoform 2 (UniProt P04075)
inactive: [1] -0.022 | volasertib 0.058 | [2] -0.049 | epoxomicin -0.004 | [3] 0.047 | [4] 0.013 | [5] -0.018 | rosiglitazone -0.005 | [6] -0.05 | [7] -0.01

AGTRAP (UniProt Q6RW13)
inactive: [1] 0.128 | volasertib 0.048 | [2] -0.043 | epoxomicin -0.084 | [3] -0.07 | [4] 0.07 | [5] 0.166 | rosiglitazone 0.012 | [6] -0.117 | [7] 0.108

ALDH16A1 (UniProt Q8IZ83)
inactive: [1] 0.015 | volasertib -0.033 | [2] -0.034 | epoxomicin -0.02 | [3] -0.006 | [4] -0.03 | [5] -0.001 | rosiglitazone 0.005 | [6] -0.033 | [7] -0.058

ANAPC10 (UniProt Q9UM13)
inactive: [1] 0.206 | volasertib -0.074 | [2] -0.028 | epoxomicin 0.005 | [3] -0.006 | [4] -0.008 | [5] 0.075 | rosiglitazone 0.005 | [6] 0.025 | [7] -0.119

AGFG1 isoform 4 (UniProt P52594)
inactive: [1] -0.043 | volasertib -0.209 | [2] 0.061 | epoxomicin 0.05 | [3] 0.001 | [4] -0.026 | [5] 0.002 | rosiglitazone -0.002 | [6] -0.022 | [7] 0.158

AFF1 isoform 2 (UniProt P51825)
inactive: [1] 0.12 | volasertib 0.021 | [2] -0.212 | epoxomicin -0.014 | [3] 0.01 | [4] 0.123 | [5] 0.104 | rosiglitazone 0.022 | [6] 0.057 | [7] -0.146

ALDH1L2 (UniProt Q3SY69)
inactive: [1] 0.039 | volasertib -0.001 | [2] 0.028 | epoxomicin -0.003 | [3] -0.011 | [4] -0.025 | [5] -0.074 | rosiglitazone -0.055 | [6] -0.03 | [7] -0.103

ALG10B (UniProt Q5I7T1)
inactive: [1] 0.092 | volasertib -0.079 | [2] -0.012 | epoxomicin 0.003 | [3] 0.031 | [4] 0.09 | [5] 0.096 | rosiglitazone -0.109 | [6] 0 | [7] -0.031

ADSS1 (UniProt Q8N142)
inactive: [1] 0.084 | volasertib 0.046 | [2] -0.07 | epoxomicin -0.062 | [3] -0.012 | [4] -0.056 | [5] -0.017 | rosiglitazone 0.02 | [6] -0.139 | [7] 0.036

AFP (UniProt P02771)
inactive: [1] -0.021 | volasertib 0.157 | [2] 0.057 | epoxomicin -0.508 | [3] -0.102 | [4] 0.07 | [5] -0.052 | rosiglitazone -0.14 | [6] 0.346 | [7] 0.079

ADIPOR1 (UniProt Q96A54)
inactive: [1] 0.133 | volasertib -0.133 | [2] -0.038 | epoxomicin 0.086 | [3] 0 | [5] 0.033 | rosiglitazone 0.045 | [6] -0.05

ALDH1A1 (UniProt P00352)
inactive: [1] 0.029 | volasertib 0.034 | [2] -0.004 | epoxomicin -0.025 | [3] -0.029 | [4] -0.033 | [5] -0.011 | rosiglitazone 0.038 | [6] -0.075 | [7] -0.051

ADGRE2 (UniProt Q9UHX3)
inactive: [1] 0.112 | volasertib -0.035 | [2] -0.073 | epoxomicin -0.012 | [3] -0.036 | [4] -0.049 | [5] -0.06 | rosiglitazone 0.009 | [7] 0.058

AFG3L2 (UniProt Q9Y4W6)
inactive: [1] -0.053 | volasertib -0.055 | [2] 0.018 | epoxomicin 0.019 | [3] 0.016 | [4] 0.001 | [5] -0.004 | rosiglitazone 0.024 | [6] -0.023 | [7] -0.157

ALG8 (UniProt Q9BVK2)
inactive: [1] 0.016 | volasertib -0.206 | [2] 0.011 | epoxomicin -0.045 | [3] 0.039 | [4] 0.116 | [5] 0.021 | rosiglitazone 0.032 | [6] -0.023 | [7] -0.029

ALG1 (UniProt Q9BT22)
inactive: [1] -0.038 | volasertib -0.01 | [2] -0.012 | epoxomicin 0.084 | [3] -0.097 | [4] -0.078 | [5] 0.014 | rosiglitazone 0.024 | [6] -0.065 | [7] 0.006

Taken from the listing (2 entries):
ALG8 (UniProt Q9BVK2)
inactive: [1] 0.016 | volasertib -0.206 | [2] 0.011 | epoxomicin -0.045 | [3] 0.039 | [4] 0.116 | [5] 0.021 | rosiglitazone 0.032 | [6] -0.023 | [7] -0.029

ALG1 (UniProt Q9BT22)
inactive: [1] -0.038 | volasertib -0.01 | [2] -0.012 | epoxomicin 0.084 | [3] -0.097 | [4] -0.078 | [5] 0.014 | rosiglitazone 0.024 | [6] -0.065 | [7] 0.006

Next part

ALDH1A2 (UniProt O94788)
inactive: [1] -0.016 | volasertib 0.056 | [2] -0.011 | epoxomicin 0.017 | [3] -0.017 | [4] -0.057 | [5] -0.004 | rosiglitazone 0.029 | [6] -0.069 | [7] -0.011

AGPAT2 (UniProt O15120)
inactive: [1] 0.041 | volasertib 0.029 | [2] 0.002 | epoxomicin -0.006 | [3] 0.034 | [4] -0.071 | [5] -0.026 | rosiglitazone -0.089 | [6] 0.022 | [7] 0.286

AK1 (UniProt P00568)
inactive: [1] -0.03 | volasertib 0.052 | [2] 0.053 | epoxomicin 0.03 | [3] -0.002 | [4] -0.027 | [5] 0.04 | rosiglitazone 0.023 | [6] -0.074 | [7] -0.033

ALDH4A1 (UniProt P30038)
inactive: [1] 0.003 | volasertib 0.033 | [2] 0.037 | epoxomicin 0.05 | [3] 0.027 | [4] -0.005 | [5] 0.016 | rosiglitazone 0.014 | [6] -0.093 | [7] -0.004

ADI1 (UniProt Q9BV57)
inactive: [1] 0.018 | volasertib -0.013 | [2] 0.079 | epoxomicin -0.006 | [3] -0.04 | [4] -0.01 | [5] 0.058 | rosiglitazone 0.069 | [6] 0.061 | [7] -0.06
